Data on 1 molecule can be found in article PMC7754597.

This assay deals with T1, Full-length human CHMP4B^A54C;L180C (CHMP4B^redox) (human) (UniProt Q9H444).
T1 sequence: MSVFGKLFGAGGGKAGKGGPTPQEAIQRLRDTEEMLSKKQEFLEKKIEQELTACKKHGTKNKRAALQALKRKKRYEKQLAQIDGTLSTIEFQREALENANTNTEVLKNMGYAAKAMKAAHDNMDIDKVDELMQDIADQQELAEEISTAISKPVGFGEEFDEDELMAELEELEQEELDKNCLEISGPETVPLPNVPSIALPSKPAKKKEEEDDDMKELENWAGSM
Nature of the assay: co-IP; purified CHMP4B^redox and LGD1 incubated with rabbit anti-CHMP4B antibody overnight at 4 °C, then Protein G Sepharose beads; washed with Wash Buffer I (50 mM NaH2PO4, 300 mM NaCl, 5% glycerol, pH 7.4); Western blot with anti-His and anti-CHMP4B; both purified. In general terms: Immunoblotting shows a protein as a band on a membrane.

Results are given in words; binding and its absence hold for the method and conditions named. Some binding calls cover weakened binding; strength is not graded here.

B1: LGD1 (CC2D1B) (protein, UniProt Q5T0F9 1-858)
chain: MMPGPRPRKGPQARGQGVAAAKQMGLFMEFGPEDMLLGMDEAEDDEDLEAELLALTGEAQTTGKKPAPKGQAPLPMAHIEKLAADCMRDVEEEEEEEGLEEDAELLTELQEVLGVDEETEPLDGDEVADPGGSEEENGLEDTEPPVQTAVLTASAPAAQAGASQGLHALLEERIHNYREAAASAKEAGEAAKARRCERGLKTLESQLASVRRGRKINEDEIPPPVALGKRPLAPQEPANRSPETDPPAPPALESDNPSQPETSLPGISAQPVSDLDPDPRALLSSRQREYKVAALSAKRAGELDRARELMRIGKRFGAVLEALEKGQPVDLSAMPPAPEDLKPQQASQAPTAPSVIPPAVERVQPVMAPDVPATPVAPTESQTVLDALQQRLNKYREAGIQARSGGDERKARMHERIAKQYQDAIRAHRAGRKVNFAELPVPPGFPPIPGLESTMGVEEDAVAATLAAAEKLASAEDSAPADKDEDEPPGHLQGEPPAQAPVAKKPARPTVPSSQRLPEPRASSSKESPSPSVREQLALLEARKLQYQRAALQAKRSQDLEQAKAYLRVAKWLEAQIIQARSGRPVDLSKVPSPLTDEEGDFILIHHEDLRLSQKAEEVYAQLQKMLLEQQEKCLLFSKQFMHQGNVAETTRFEKLAQDRKKQLEILQLAQAQGLDPPTHHFELKTFQTVRIFSELNSTEMHLIIVRGMNLPAPPGVTPDDLDAFVRFEFHYPNSDQAQKSKTAVVKNTNSPEFDQLFKLNINRNHRGFKRVIQSKGIKFEIFHKGSFFRSDKLVGTAHLKLERLENECEIREIVEVLDGRKPTGGKLEVKVRLREPLSGQDVQMVTENWLVLEPRGL
On to B1, for which the binding result is reported as “binds”.
